# Screening data, single-dose tests

Protein sequences, listed by entry. Tags and fused reporters are not part of them. Residues count along the entry.
UniProt A4I591, 1-473: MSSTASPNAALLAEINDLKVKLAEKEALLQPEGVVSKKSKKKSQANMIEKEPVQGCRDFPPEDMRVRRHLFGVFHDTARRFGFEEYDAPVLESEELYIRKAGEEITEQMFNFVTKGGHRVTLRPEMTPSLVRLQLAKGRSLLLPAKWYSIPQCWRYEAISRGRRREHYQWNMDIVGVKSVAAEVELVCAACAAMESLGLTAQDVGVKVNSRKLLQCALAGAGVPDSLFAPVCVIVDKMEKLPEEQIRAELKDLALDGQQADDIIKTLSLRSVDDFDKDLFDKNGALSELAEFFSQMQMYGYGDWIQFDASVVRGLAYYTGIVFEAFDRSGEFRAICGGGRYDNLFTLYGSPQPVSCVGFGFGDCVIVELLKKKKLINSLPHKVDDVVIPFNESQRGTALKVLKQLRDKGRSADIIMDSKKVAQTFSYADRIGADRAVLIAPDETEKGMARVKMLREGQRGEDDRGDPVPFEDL

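Enzyme assay of histidyl-tRNA synthetase; the read-out is not stated. Target: Histidine-tRNA ligase, Leishmania infantum (UniProt A4I591). Compounds at 30 µM. Direction is inferred from retests: higher values go with stronger inhibition. The assay is labelled LdHisRS but filed under L. infantum. Of about 69,000 compounds tested this way, about 410 (0.6%) reached 50% or more in at least one test.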

Values are the deposited “Percent Effect”, in %. The record does not define 0% and 100%; most values in the screen are far below 50% and negative numbers occur (in some assays of this library far below -100). Compounds were drawn at random from those tested, without regard to their results.

CCc1cccc(NC(=O)CCC(=O)N(C)Cc2nc(C)c[nH]2)c1 read 19.84%.
CCOC(C)C(=O)Nc1ccnn1-c1ccccc1C (stereo not drawn) read 16.85%.
COC(=O)c1ccc(C(=O)NCc2nn(C)c3c2COCC3)cc1 read -1.37%.
COc1cc(CNCC(O)c2ccc(F)cc2F)cc2c1OCO2 (stereo not drawn) read 5.455%.
COc1cccc(CNC(=O)c2nc3c(s2)CCN(C(C)=O)CC3)c1 read 20%.
O=C1CC(c2ccccc2F)c2c(n3ccsc3nc2=O)N1 (stereo not drawn) read 11.65%.
O=C(CCc1nnc(-c2ccccc2)o1)N1CCCC1c1ccc[nH]1 (stereo not drawn) read 16.87%.
CC(C)c1nnc2n1CCN(Cc1csc(-c3cnn(C)c3)n1)C2 read 6.061%.
CC(C)c1n[nH]c(C2CN(C(=O)C3=COCC3)CCO2)n1 (stereo not drawn) read -101.5%.
CS(=O)(=O)C1CCN(S(=O)(=O)c2ccc(F)c(F)c2)C1 (stereo not drawn) read 11.24%.
NC(=O)NC(=O)CCN1CCC(C(=O)c2cc(F)ccc2F)CC1 read 14.4%.
CCc1cnc2c(c1Nc1cccc(OC)c1)c(=O)n(C)c(=O)n2C read 13.48%.
Cc1ccc(C)c(NC(=O)Cc2c(C)nc3c(c2C)c(=O)[nH]n3C)c1 read 1.653%.
COCCNC(=O)c1cc2c(c3ccccc3n2C)n1C(=O)N(C)C read 15.6%.
CC(C)N(Cc1ccccn1)C(=O)CCOc1cccc(F)c1 read 2.073%.
Cc1c[nH]c(C(=O)N2CCC(c3nnc(CN(C)CCO)n3C)CC2)c1 read 7.292%.
CN(CCCO)Cc1cc(Cl)ccc1OCC(O)CN1CCCCCC1 (stereo not drawn) read 25.3%.
Cc1cccnc1C(=O)N1CCCC(Cc2cncc3ccccc23)C1 (stereo not drawn) read 14.48%.
CCNC(=O)c1cc2n(n1)CCCO2 read 18.18%.
Cc1ccoc1C(=O)N1CCOCC2(CCN(c3ncccn3)C2)C1 (stereo not drawn) read 20.75%.
CC(CCNC(=O)NCCc1ccncc1)c1ccccc1 (stereo not drawn) read 0%.
Cc1ccnc(NS(=O)(=O)c2cc(C(N)=O)n(C)c2)c1 read 14.52%.
N#Cc1ccccc1Cn1cncn1 read -4.167%.
CC(C)c1cc(CN(C)C(=O)CN2CCCCC2=O)no1 read -18.68%.
CC(C)Oc1ncnc2c1CCN(Cc1ccco1)CC2 read 22.22%.
CC(C)Cc1cc(CC2(NCc3ccccc3Cl)COC2)no1 read 12.16%.
O=C(c1ccccn1)N1C[C@@H]2CC[C@H](C1)N(C(=O)c1ccsc1)C2 read 7.2%.
Cc1cccc(C)c1-n1nnnc1C1(NCc2ccco2)CCCC1 read 11.9%.
Cc1cnn(CC2CCCN2Cc2coc(-c3ccccc3)n2)c1 (stereo not drawn) read 13.46%.
CNS(=O)(=O)c1csc(C(=O)NCc2sccc2C)c1 read 10.96%.
Cc1cc(N2CCC(NC(=O)CCc3cnn(C)c3)CC2)nc(C)n1 read 15.49%.
O=C(NCCCc1ccc(F)cc1)c1ccc(N2CCOCC2)cc1 read 8.475%.
Cc1csc2ncc(-c3ccnc(NC4CCOCC4)n3)c(=O)n12 read 11.43%.
Cc1ccc2c(n1)N(Cc1cccnc1)CCN(C1CCOCC1)C2 read 6.422%.
Cc1nc(O)c2nnn(C[C@H]3CCCN3C(=O)c3ccccc3C)c2n1 read 16.49%.
O=C(c1ccco1)N1CCCC2(CN(Cc3ccc(F)cc3)CCO2)C1 (stereo not drawn) read 25%.
Fc1cccc2[nH]c(CN3CCn4c(nnc4C4CC4)C3)nc12 read 14.46%.
Fc1ccc(CN2CCCC2Cn2cncn2)c2ncccc12 (stereo not drawn) read 35.48%.
c1cncc(COC[C@H]2CC[C@H]3[C@H](CCN3Cc3cccs3)O2)c1 read 16.79%.
CC(C)NC(=O)C1CN(Cc2cccs2)Cc2ccnn2C1 (stereo not drawn) read 19.3%.
CS(=O)(=O)N[C@@H]1CN(C(=O)c2cnccn2)[C@@H]2CCCO[C@@H]21 read 13.76%.
CC(C)N1CCC(C(=O)N(C)CC(=O)c2ccc(O)cc2)CC1 read 15.08%.
Cc1ccc(-n2cnnn2)cc1NCC(=O)Nc1cc(F)ccc1F read 14.81%.
CNC(=O)c1ccnc(N2CCCC(COc3cccc(C)c3)C2)c1 (stereo not drawn) read 15.56%.
COCC(=O)NC[C@]12COC[C@H]1CN(c1ncc(F)cn1)C2 read 7.071%.
CCC(C(=O)N1CCN(C(=O)N2CCOCC2)CC1)n1cccn1 (stereo not drawn) read 11.29%.
Cc1cc(NC(=O)Cn2ccc(=O)c3ccccc32)[nH]n1 read 20%.
O=C(c1ccno1)N1CCO[C@@H]2CC(COCc3ccccn3)C[C@H]21 (stereo partly drawn) read 15.84%.
O=C1NCc2ccccc2CC12CCCN(CCCc1ccccc1)C2 (stereo not drawn) read 22.07%.

Once more, the final 3:

- Cc1cc(NC(=O)Cn2ccc(=O)c3ccccc32)[nH]n1 : 20%
- O=C(c1ccno1)N1CCO[C@@H]2CC(COCc3ccccn3)C[C@H]21 (stereo partly drawn) : 15.84%
- O=C1NCc2ccccc2CC12CCCN(CCCc1ccccc1)C2 (stereo not drawn) : 22.07%

Source: ChEMBL document CHEMBL3988442, “University of Dundee, Small-Polar-MMV Screening Library” (2021).